PubChem BioAssay AID1259308 | NCATS – 2017
Shown is an unselected part of about 59,000 reagents. Over the whole deposit, about 1,510 (2.6%) were called active. 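Calls use total luciferase alone and ignore viability, so some active siRNAs may act by altering cell number.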 Unmarked entries are inactive. Reagents against one gene are numbered here. Further read-outs or replicates are left out here.

- Purpose: 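Knock-downs that increase output of a recombinant reporter protein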 (primary screen)
- Cells: human HEK293 embryonic kidney cells stably expressing firefly luciferase (HEK-CMV-Luc2-Hygro)
- Knock-down reagent: single siRNA against human genes, 0.8 pmol siRNA per well
- Timing: 72 h
- Measured: 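Reporter luminescence and viable-cell signal on separate replicate plates, given as percent of non-targeting control and median/MAD z-scores, plus per-cell luciferase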
- Direction: total luciferase, z-score: higher = more reporter protein produced
- Call rule: 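An siRNA counts as active if its total luciferase robust z-score exceeds 3; genes with two or more such siRNAs out of three were retested with fresh siRNAs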
- Calls: active = raised luciferase; inactive = no rise

KCNH5 #1 — total luciferase, z-score: -0.116
KCNH5 #2 — total luciferase, z-score: -0.135
KCNH5 #3 — total luciferase, z-score: -1.43
HNF1B #1 — total luciferase, z-score: 0.0741
HNF1B #2 — total luciferase, z-score: -0.0545
HNF1B #3 — total luciferase, z-score: -2.08
NUDT12 #1 — total luciferase, z-score: 0.792
NUDT12 #2 — total luciferase, z-score: -1.08
NUDT12 #3 — total luciferase, z-score: 0.0947
ZNF680P1 #1 — total luciferase, z-score: 3.13 (active)
ZNF680P1 #2 — total luciferase, z-score: -0.831
ZNF680P1 #3 — total luciferase, z-score: -0.132
CNOT4 #1 — total luciferase, z-score: -0.519
CNOT4 #2 — total luciferase, z-score: 2.34
CNOT4 #3 — total luciferase, z-score: -0.708
TENM1 #1 — total luciferase, z-score: 0.125
TENM1 #2 — total luciferase, z-score: 0.296
TENM1 #3 — total luciferase, z-score: -0.139

Reagents listed so far called active:
ZNF680P1 #1 — total luciferase, z-score: 3.13 (active)

More records:
NWD1 #1 — total luciferase, z-score: 0.146
NWD1 #2 — total luciferase, z-score: 0.342
NWD1 #3 — total luciferase, z-score: 0.405
EMC4 #1 — total luciferase, z-score: -0.268
EMC4 #2 — total luciferase, z-score: -0.992
EMC4 #3 — total luciferase, z-score: -2.34
SLC39A14 #1 — total luciferase, z-score: -1.62
SLC39A14 #2 — total luciferase, z-score: -1.09
SLC39A14 #3 — total luciferase, z-score: -0.0695
ARHGAP8 #1 — total luciferase, z-score: -0.746
ARHGAP8 #2 — total luciferase, z-score: 0.0759
ARHGAP8 #3 — total luciferase, z-score: -0.0959
NISCH #1 — total luciferase, z-score: 2.39
NISCH #2 — total luciferase, z-score: -0.867
NISCH #3 — total luciferase, z-score: -1.2
